Laboratory results taken from article PMC4756812, “ZFP57 recognizes multiple and closely spaced sequence motif variants to maintain repressive epigenetic marks in mouse embryonic stem cells”.

target: T1, MBP-ZFP57 DNA binding domain (Glu87-Ala195) (Mus musculus) (UniProt Q8C6P8); test: EMSA; details: 5mC at top 11 and bottom 9; EMSA: 25 pmol protein, 2.5 pmol dsDNA, 25 mM HEPES pH 7.9, 50 mM KCl, 6.25 mM MgCl2, 5% glycerol, on ice 10 min; 5% PAGE, SYBR Green stain; recombinant protein; residues 87-195
T1 sequence (looked up): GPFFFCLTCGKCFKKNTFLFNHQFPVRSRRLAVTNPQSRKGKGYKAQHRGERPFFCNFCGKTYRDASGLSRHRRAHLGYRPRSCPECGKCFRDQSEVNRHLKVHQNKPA

Binding result, binds more weakly:
GTAATATAGCCGCAGTAATA (double strand) [Methylated 1A]
GTAATATTACCGCAGTAATA (double strand) [Methylated 2A]
GTAATATTCCCGCAGTAATA (double strand) [Methylated 2C]
GTAATATTGACGCAGTAATA (double strand) [Methylated 3A]
GTAATATTGCCGAAGTAATA (double strand) [Methylated 6A]
GTAATATTGCCGGAGTAATA (double strand) [Methylated 6G]
GTAATATTGCCGTAGTAATA (double strand) [Methylated 6T]
GTAATATTGGCGCAGTAATA (double strand) [Methylated 3G]
GTAATATTGTCGCAGTAATA (double strand) [Methylated 3T]
GTAATATTTCCGCAGTAATA (double strand) [Methylated 2T]

same assay, conditions: 5mC at top 11 and bottom 9 and 12; legend says two methylated CpGs, but top 8 is printed as C; EMSA: 25 pmol protein, 2.5 pmol dsDNA, 25 mM HEPES pH 7.9, 50 mM KCl, 6.25 mM MgCl2, 5% glycerol, on ice 10 min; 5% PAGE, SYBR Green stain; recombinant protein; residues 87-195

Binding result, binds more weakly:
GTAATATCGCCGCAGTAATA (double strand) [Methylated 1C]

same assay, conditions: EMSA: 25 pmol protein, 2.5 pmol dsDNA, 25 mM HEPES pH 7.9, 50 mM KCl, 6.25 mM MgCl2, 5% glycerol, on ice 10 min; 5% PAGE, SYBR Green stain; recombinant protein; residues 87-195

Binding result, binds more weakly:
GTAATATAGCCGCAGTAATA (double strand) [1A]
GTAATATCGCCGCAGTAATA (double strand) [1C]
GTAATATTACCGCAGTAATA (double strand) [2A]
GTAATATTCCCGCAGTAATA (double strand) [2C]
GTAATATTGACGCAGTAATA (double strand) [3A]
GTAATATTGCCACAGTAATA (double strand) [5A]
GTAATATTGCCCCAGTAATA (double strand) [5C]
GTAATATTGCCGAAGTAATA (double strand) [6A]
GTAATATTGCCGGAGTAATA (double strand) [6G]
GTAATATTGCCGTAGTAATA (double strand) [6T]
GTAATATTGCCTCAGTAATA (double strand) [5T]
GTAATATTGGCGCAGTAATA (double strand) [3G]
GTAATATTGTCGCAGTAATA (double strand) [3T]
GTAATATTTCCGCAGTAATA (double strand) [2T]

The exact form of at least one protein or probe is not confirmed. Weaker means in comparison with the reference protein, sequence or condition of that experiment. At least one verdict rests on a figure or table, not on a statement of the authors. Where a protein sequence is shown, tags need not be part of it.
